Measured values reported in paper PMC5456407.

Amino acid sequences for entries named in this document (tags omitted). A change or cut given only in a name is not applied to a line headed by its entry.
UniProt Q86UT6: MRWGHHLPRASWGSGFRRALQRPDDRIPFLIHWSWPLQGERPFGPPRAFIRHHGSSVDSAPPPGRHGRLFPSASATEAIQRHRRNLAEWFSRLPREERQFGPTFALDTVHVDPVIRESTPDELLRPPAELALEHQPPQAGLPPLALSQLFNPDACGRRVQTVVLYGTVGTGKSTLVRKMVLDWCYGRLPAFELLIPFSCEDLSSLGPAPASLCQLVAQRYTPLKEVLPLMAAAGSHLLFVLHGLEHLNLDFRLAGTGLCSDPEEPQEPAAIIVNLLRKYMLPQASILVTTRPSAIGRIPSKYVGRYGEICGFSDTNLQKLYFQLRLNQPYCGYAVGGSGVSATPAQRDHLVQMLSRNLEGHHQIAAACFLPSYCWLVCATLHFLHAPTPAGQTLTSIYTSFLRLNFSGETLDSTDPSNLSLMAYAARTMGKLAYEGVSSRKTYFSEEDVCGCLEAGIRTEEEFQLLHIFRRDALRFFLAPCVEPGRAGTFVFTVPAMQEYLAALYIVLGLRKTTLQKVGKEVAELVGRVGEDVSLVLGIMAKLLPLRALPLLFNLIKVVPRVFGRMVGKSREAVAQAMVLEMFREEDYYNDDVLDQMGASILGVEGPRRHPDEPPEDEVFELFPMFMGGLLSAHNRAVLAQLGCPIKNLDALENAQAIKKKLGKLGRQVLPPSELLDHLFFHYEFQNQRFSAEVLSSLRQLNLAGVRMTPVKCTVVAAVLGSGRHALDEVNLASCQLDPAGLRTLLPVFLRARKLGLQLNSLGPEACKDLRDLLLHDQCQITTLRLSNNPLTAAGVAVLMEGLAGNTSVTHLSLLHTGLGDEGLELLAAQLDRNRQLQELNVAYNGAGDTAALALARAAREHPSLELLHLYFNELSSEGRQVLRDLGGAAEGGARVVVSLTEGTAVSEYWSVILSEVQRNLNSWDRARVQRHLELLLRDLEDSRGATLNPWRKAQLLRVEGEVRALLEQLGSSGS
UniProt Q9UNN5: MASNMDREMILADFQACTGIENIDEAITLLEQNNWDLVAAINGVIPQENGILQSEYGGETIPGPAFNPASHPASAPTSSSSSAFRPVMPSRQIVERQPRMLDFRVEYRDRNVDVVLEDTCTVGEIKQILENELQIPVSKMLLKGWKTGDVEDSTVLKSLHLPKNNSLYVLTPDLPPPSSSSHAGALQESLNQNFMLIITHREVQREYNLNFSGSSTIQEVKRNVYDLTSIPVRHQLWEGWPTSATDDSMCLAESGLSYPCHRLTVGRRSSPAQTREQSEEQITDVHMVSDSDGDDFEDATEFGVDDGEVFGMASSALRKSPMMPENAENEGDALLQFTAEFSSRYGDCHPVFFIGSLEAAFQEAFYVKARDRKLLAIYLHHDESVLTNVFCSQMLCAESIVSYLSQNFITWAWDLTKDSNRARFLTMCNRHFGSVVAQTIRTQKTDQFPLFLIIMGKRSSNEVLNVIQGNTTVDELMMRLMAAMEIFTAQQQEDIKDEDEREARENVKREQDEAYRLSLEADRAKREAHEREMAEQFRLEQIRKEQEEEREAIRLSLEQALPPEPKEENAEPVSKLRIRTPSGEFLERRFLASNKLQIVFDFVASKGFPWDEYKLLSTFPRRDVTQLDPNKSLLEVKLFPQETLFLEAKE

Target: GST-tagged N-terminal domain (amino acids 1–225) of NLRX1 (UniProt Q86UT6)
Experiment: affinity purification with mass spectrometry; GST-NLRX1-N (aa 1-225) or empty GST vector expressed in HEK293T; lysates precipitated with GST beads, 4-15% Nu-PAGE, silver staining, bands exclusive to the GST-NLRX1-N lane identified by mass spectrometry

FAS-associated factor 1 (FAF1), endogenous in HEK293T cells (from UniProt Q9UNN5 1-650)
binding: binds

Results are given in words; binding and its absence hold for the method and conditions named. In cells and extracts the contact can be indirect. A yes stands for co-enrichment or nearness to the bait. Other partners may have been found.
